Results as given in patent US20250136694A1 (HARBOUR BIOMED SHANGHAI, published 2025).
No constants are given. Whether binding was seen depends on the method and setting. Some results given as binding are weak or reduced against the parent protein; the word gives no strength. Each block holds one binder with its values, some of them ahead of it.

Target: T1, human B7-H4 (protein in solution, BLI) (human, UniProt Q7Z7D3 25-258, limits assumed)
T1 sequence (looked up): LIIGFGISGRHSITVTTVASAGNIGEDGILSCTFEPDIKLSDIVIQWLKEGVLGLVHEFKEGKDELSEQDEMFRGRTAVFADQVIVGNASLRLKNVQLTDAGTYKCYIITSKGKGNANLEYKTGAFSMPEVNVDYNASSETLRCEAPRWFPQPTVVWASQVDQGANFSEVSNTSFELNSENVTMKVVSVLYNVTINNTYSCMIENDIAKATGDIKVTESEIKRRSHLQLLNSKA
Assay: BLI

binding: binds
B1: PR006004 (antibody, V domains shown)
VH: EVQLVESGGGLVQPGGSLRLSCAASGFAFSNYWMHWARQVPGKGRVWISRISGDGRSTSYADSVKGRFTISRDNAKNMVYLQMNNLRAEDTAVYYCARDRFGDDYYYGMNVWGQGTTVTVSS
notes: also called R7004M1A2; anti-human B7-H4 HCAb monoclonal antibody

binding: binds
B2: PR006008 (antibody, IgG1, V domains shown)
VH: EVQLVESGGGLVQPGGSLRLSCAASGFTFTDFWMHWVRQVPGKGREWVSRISPDGSSTSYEDSVKGRFTISRDNAKNTVYLQMHGLRAEDTAVYYCTRFSTGWHRIEYFQHWGQGTLVTVSS
notes: also called R7004M6D4; anti-human B7-H4 HCAb monoclonal antibody
